Results: patent US20200172486A1, “PYRIDONE COMPOUNDS AND AGRICULTURAL AND HORTICULTURAL FUNGICIDES CONTAINING THE SAME AS ACTIVE INGREDIENTS” (MITSUI CHEMICALS AGRO, INC., priority 2017, published 2020)
Some results were stated once for a whole list of compounds, not compound by compound. At least one compound was matched to its structure with a doubt left.

How the values were obtained:
[1] = test system: cucumber anthracnose fungi (Colletotrichum orbiculare); assay: Test Example H: cucumber anthracnose, spray test on potted cucumber plants; settings: cucumber (Sagami Hanjiro), 250 ppm spray 2.5 ml/pot before inoculation, 6 to 10 days after inoculation
[2] = test system: gray mold fungi (Botrytis cinerea); assay: Test Example B: tomato gray mold, spray test on potted tomato plants; settings: tomato (Oogata Fukuju), 250 ppm spray 2.5 ml/pot before inoculation, 2 to 3 days after inoculation
[3] = test system: grape downy mildew fungus (Plasmopara viticola); assay: Test Example G: grape downy mildew, spray test on potted grape plants; settings: grape (Neomuscat), 250 ppm spray 2.5 ml/pot before inoculation, 7 to 10 days after inoculation
[4] = test system: cabbage alternaria sooty spot fungi (Alternaia brassicicola); assay: Test Example C: cabbage alternaria sooty spot, spray test on potted cabbage plants; settings: cabbage (Shikidori), 250 ppm spray 2.5 ml/pot before inoculation, 2 to 3 days after inoculation

Measured: control value

CCC(C)N(CC)c1cc(Br)c(=O)n(CC)c1-c1c(F)cc(F)cc1F (stereo not drawn) [Compound 137]
> 50%: all assays above

C#CCN(CC)c1cc(Br)c(=O)n(CC)c1-c1c(F)cccc1F [compound 323]
> 50%: all assays above

CCCN(C)c1cc(Br)c(=O)n(CC)c1-c1c(F)cc(F)cc1F [Compound 112]
> 50%: all assays above

CCN(c1cc(Br)c(=O)n(CC)c1-c1c(F)cc(OC)cc1F)C(C)C [Compound 132]
> 50%: all assays above

CCn1c(-c2c(F)cc(F)cc2F)c(N(C)C2CCCCC2)cc(Br)c1=O [Compound 118]
> 50%: all assays above

CCCCNc1cc(Cl)c(=O)n(CC)c1-c1ccc(OC)cc1Cl [Compound 51]
> 50%: all assays above

CCn1c(-c2c(F)cc(F)cc2F)c(Nc2ccc(OC)cc2)cc(Br)c1=O [Compound 123]
> 50%: all assays above

CCn1c(-c2ccc(F)cc2Cl)c(Nc2ccccc2)cc(Cl)c1=O [Compound 286]
> 50%: all assays above

CCn1c(-c2ccc(F)cc2Cl)c(NCC(F)F)cc(Br)c1=O [compound 310]
> 50%: all assays above

CCn1c(-c2c(F)cc(F)cc2F)c(Nc2ccccc2C)cc(Br)c1=O [Compound 119]
> 50%: all assays above

C#CCN(CC)c1cc(Br)c(=O)n(CC)c1-c1ccc(F)cc1Cl [Compound 220]
> 50%: all assays above

CCN(C(=O)OC)c1cc(Cl)c(=O)n(CC)c1-c1c(F)cc(F)cc1F [Compound 241]
> 50%: all assays above

CCN(c1cc(Cl)c(=O)n(CC)c1-c1c(F)cccc1F)C(C)C [Compound 170]
> 50%: all assays above

CCN(CC)c1cc(Br)c(=O)n(CC)c1-c1c(F)cccc1Cl [compound 331]
> 50%: all assays above

C#CCN(CC#C)c1cc(Cl)c(=O)n(CC)c1-c1c(F)cccc1F [Compound 181]
> 50%: all assays above

CCn1c(-c2c(F)cc(F)cc2F)c(N(C)CC(C)C)cc(Br)c1=O [Compound 138]
> 50%: all assays above

CCN(CC)c1cc(Cl)c(=O)n(CC(F)F)c1-c1c(F)cc(OC)cc1F [Compound 155]
> 50%: all assays above

CC#CCN(CC)c1cc(Cl)c(=O)n(CC)c1-c1c(F)cc(F)cc1F [Compound 150]
> 50%: all assays above

CCn1c(-c2c(F)cccc2F)c(N(C)C(C)C(C)C)cc(Cl)c1=O (stereo not drawn) [Compound 197]
> 50%: all assays above

CCn1c(-c2c(F)cc(OC)cc2F)c(N(C)C(C)C)cc(Br)c1=O [Compound 126]
> 50%: all assays above

CCn1c(-c2ccc(F)cc2Br)c(N(C)c2ccccc2)cc(Cl)c1=O [compound 307]
> 50%: all assays above

CCCNc1cc(Br)c(=O)n(CC)c1-c1c(F)cc(F)cc1F [Compound 108]
> 50%: all assays above

C#CCN(CC)c1cc(Cl)c(=O)n(CC)c1-c1c(F)cccc1F [compound 320]
> 50%: all assays above

CCN(CC)c1cc(Cl)c(=O)n(CC)c1-c1ccc(F)cc1F [Compound 266]
> 50%: all assays above

CCn1c(-c2ccccc2F)c(N(C)C(C)C)cc(Br)c1=O [compound 425]
> 50%: all assays above

CCn1c(-c2ccc(F)cc2Br)c(N(C)CC(F)F)cc(Br)c1=O [compound 325]
> 50%: all assays above

C#CCN(C)c1cc(Cl)c(=O)n(CC)c1-c1c(F)cccc1F [Compound 183]
> 50%: all assays above

CCN(CC)c1cc(Cl)c(=O)n(CC)c1-c1c(F)cc(OC)cc1F [Compound 99]
> 50%: all assays above

CCn1c(-c2c(F)cccc2F)c(N(C)CC(F)F)cc(Br)c1=O [Compound 258]
> 50%: all assays above

CCN(CC)c1cc(Br)c(=O)n(CC)c1-c1c(F)cc(OC)cc1F [Compound 77]
> 50%: all assays above

CCn1c(-c2ccc(OC)cc2Cl)c(NC(C)C)cc(Br)c1=O [Compound 222]
> 50%: [2] | [3] | [4]

CCn1c(-c2ccc(F)cc2F)c(Nc2ccccc2)cc(Br)c1=O [Compound 295]
> 50%: [2] | [3] | [4]

CCn1c(-c2ccc(F)cc2Br)c(N(C)c2ccccc2)cc(Br)c1=O [compound 308]
> 50%: [2] | [3] | [4]

CCN(CC(F)F)c1cc(Br)c(=O)n(CC)c1-c1ccc(F)cc1Br [compound 327]
> 50%: [2] | [3] | [4]
